For this assay, the system named is BDF1 mice, Adenocarcinoma 755 s.c., tumor weight T/C. Kind of assay: NCI In Vivo Anticancer Drug Screen. Data for tumor model Adenocarcinoma 755 (subcutaneous) in B6D2F1 (BDF1) mice. To be noted: T/C endpoint: mean tumor weight, higher T/C = larger tumour; for T/C: evaluated on day 12. As for the experimental part: The antitumor activity of compounds was measured in mice bearing transplantable tumors. Survival or tumor size were measured and the results are expressed as the measurement made in the treated group (T) divided by the measurement made in the vehicle treated control group (C). The tumor model used in this assay is Adenocarcinoma 755 (subcutaneous) in B6D2F1 (BDF1) mice

Where [1] appears, read: dose: 100.0 mg/kg/injection, schedule: Q01DX011 (ip), vehicle: carboxymethylcellulose (CMC).
Setting [2] is: dose: 200.0 mg/kg/injection, schedule: Q01DX011 (ip), vehicle: carboxymethylcellulose (CMC).
The mark [3] stands for this setting: dose: 400.0 mg/kg/injection, schedule: Q01DX011 (ip), vehicle: carboxymethylcellulose (CMC).

For 25 compounds, survivor count and T/C results are on record in PubChem BioAssay AID180 (DTP/NCI, 2004).

The list is a part of this screen's results and no random one: it is rich in T/C values a quarter to a half above the control, in often repeated tests (any T/C) and in doses without a T/C. Further doses and runs are listed elsewhere. T/C gives the treated animals as a percentage of the vehicle group. Schedules are NCI's codes, read here as Q, the interval in days (D) or hours (H), X, the number of doses. Some entries were tested several times; the results are listed from low to high. Some T/C values carry the count of animals alive at the toxicity check (mostly the fifth day); where none is given, no animal had died by that day. Some entries give survivors of the animals treated and no T/C: the source files T/C as zero there, which appears to mark a toxic dose or a test without result, not a measured value. Survivors were counted at the toxicity check, usually on the fifth day, unless a day is given; later deaths do not show. Some schedule codes hold Z or #, which are not explained here.

As to `CCC(c1ccc(O)cc1)C(CC)c1ccc(OC)cc1` (stereo unspecified), the survivor count by setting is: (dose: 40.0 mg/kg/injection, schedule: Q01DX011 (sc), vehicle: steroid suspending solution) 6 of 10; (dose: 80.0 mg/kg/injection, schedule: Q01DX011 (sc), vehicle: steroid suspending solution) 3 of 10; (dose: 160.0 mg/kg/injection, schedule: Q01DX011 (sc), vehicle: steroid suspending solution) 3 of 10; (dose: 320.0 mg/kg/injection, schedule: Q01DX011 (sc), vehicle: steroid suspending solution) 1 of 10.
In the case of `O=S1(=O)OCc2ccccc21`, the survivor count by setting is: (dose: 110.0 mg/kg/injection, schedule: Q01DX011 (ip), vehicle: carboxymethylcellulose (CMC)) 4 of 10; (dose: 220.0 mg/kg/injection, schedule: Q01DX011 (ip), vehicle: methylcellulose (MC)) 3 of 10.
As for `[I][Hg][CH2]C1COCC([CH2][Hg][I])O1.[I][Hg][CH2]C1COCC([CH2][Hg][I])O1` (stereo unspecified), the survivor count (dose: 80.0 mg/kg/injection, schedule: Q01DX011 (ip), vehicle: other) is listed as 1 of 10.
For the compound `CS(=O)(=O)OCCC(=O)NCCNC(=O)CCOS(C)(=O)=O`, under “dose: 12.5 mg/kg/injection, schedule: Q01DX011 (ip), vehicle: saline”, the T/C was 136 % of control. Where the note is “dose: 75.0 mg/kg/injection, schedule: Q01DX011 (ip), vehicle: methylcellulose (MC)”, the survivor count is reported as 2 of 10.
Turning to `CCCCOC(OCCCC)C(OCCCC)OCCCC`, the survivor count (dose: 400.0 mg/kg/injection, schedule: Q01DX011 (ip), vehicle: other) is listed as 4 of 10.
`CN1C=NNc2ncnc(Cl)c21`: the survivor count (dose: 500.0 mg/kg/injection, schedule: Q01DX011 (ip), vehicle: carboxymethylcellulose (CMC)) is on record as 0 of 10.
As for `CO[C@@]12[C@H](COC(N)=O)C3=C(C(=O)C(C)=C(N)C3=O)N1C[C@@H]1N[C@@H]12`, the survivor count runs as follows: (dose: 0.5 mg/kg/injection, schedule: Q01DX011 (ip), vehicle: carboxymethylcellulose (CMC)) 0 of 10; (dose: 1.0 mg/kg/injection, schedule: Q01DX011 (ip), vehicle: carboxymethylcellulose (CMC)) 0 of 10; (dose: 2.0 mg/kg/injection, schedule: Q01DX011 (ip), vehicle: methylcellulose (MC)) 6 of 10; (dose: 2.05 mg/kg/injection, schedule: Q01DX011 (ip), vehicle: carboxymethylcellulose (CMC)) 3 of 10; (dose: 1800.0 micrograms/kg/injection, schedule: Q01DX011 (ip), vehicle: carboxymethylcellulose (CMC)) 4 of 10. In addition, the T/C (dose: 256.0 micrograms/kg/injection, schedule: Q01DX011 (ip), vehicle: carboxymethylcellulose (CMC)) is 137 % of control [9 of 10 alive].
For `NC(=O)CCl`, the survivor count is, setting by setting: (dose: 12.5 mg/kg/injection, schedule: Q01DX011 (ip), vehicle: other) 2 of 10; (dose: 100.0 mg/kg/injection, schedule: Q01DX011 (ip), vehicle: other) 1 of 10.
Take `OCC1OC(n2cnc3c(Cl)ncnc32)C(O)C1O` (stereo unspecified): the survivor count was 6 of 10 (dose: 1000.0 mg/kg/injection, schedule: Q01DX011 (ip), vehicle: methylcellulose (MC)) and 3 of 10 (dose: 1500.0 mg/kg/injection, schedule: Q01DX011 (ip), vehicle: methylcellulose (MC)).
Turning to `Cc1cc(=O)c2c(C)cccc2[nH]1`, the survivor count (dose: 120.0 mg/kg/injection, schedule: Q01DX011 (ip), vehicle: carboxymethylcellulose (CMC)) is listed as 6 of 10; the survivor count (dose: 160.0 mg/kg/injection, schedule: Q01DX011 (ip), vehicle: carboxymethylcellulose (CMC)) was 6 of 10; the survivor count (dose: 640.0 mg/kg/injection, schedule: Q01DX011 (ip), vehicle: carboxymethylcellulose (CMC)) is on record as 1 of 10.
As for `Nc1nc(C(F)(F)F)c2ncn(Cc3ccccc3)c2n1`, the survivor count (dose: 30.0 mg/kg/injection, schedule: Q01DX011 (ip), vehicle: carboxymethylcellulose (CMC)) is 6 of 10 and the survivor count (dose: 240.0 mg/kg/injection, schedule: Q01DX011 (ip), vehicle: carboxymethylcellulose (CMC)) is recorded as 3 of 10.
For `Nc1nc(=S)c2ncn(C3OC(COC(=O)c4ccc(Cl)cc4)C(OC(=O)c4ccc(Cl)cc4)C3OC(=O)c3ccc(Cl)cc3)c2[nH]1` (stereo unspecified), for the setting “dose: 25.0 mg/kg/injection, schedule: Q01DX011 (ip), vehicle: carboxymethylcellulose (CMC)”, the T/C was 1, 2, 7, 17 % of control. Moreover, the survivor count is, setting by setting: under setting [1], 0 of 12 and 5 of 10; under setting [2], 0 of 10 and 0 of 12.
Regarding `OB(O)O`, the survivor count (dose: 1000.0 mg/kg/injection, schedule: Q#A X022 (oral), vehicle: water) is on record as 6 of 10 and the survivor count (dose: 1250.0 mg/kg/injection, schedule: Q#A X022 (oral), vehicle: water) is reported as 3 of 10.
For the compound `COC(=O)c1[nH]c(=O)[nH]c(=O)c1F`, for the setting “dose: 1.5 mg/kg/injection, schedule: Q01DX011 (ip), vehicle: methylcellulose (MC)”, the T/C was 145 % of control.
As for `Cc1ccccc1-c1nc2c(N)nc(N)nc2nc1N`, the T/C (dose: 25.25 mg/kg/injection, schedule: Q01DX011 (ip), vehicle: carboxymethylcellulose (CMC)) was 127 % of control. In addition, the survivor count (dose: 450.0 mg/kg/injection, schedule: Q01DX011 (ip), vehicle: methylcellulose (MC)) is 6 of 10.
Consider `CN(C)c1ccc(/C=C/c2ccnc3ccccc23)cc1`, for which the survivor count reads like this: (dose: 32.0 mg/kg/injection, schedule: Q01DX011 (ip), vehicle: water) 2 of 10; (dose: 62.5 mg/kg/injection, schedule: Q01DX011 (ip), vehicle: water) 0 of 10; (dose: 125.0 mg/kg/injection, schedule: Q01DX011 (ip), vehicle: water) 0 of 10; (dose: 250.0 mg/kg/injection, schedule: Q01DX011 (ip), vehicle: water) 0 of 10; (dose: 500.0 mg/kg/injection, schedule: Q01DX011 (ip), vehicle: water) 0 of 10.
Regarding `O=C(O)c1ccc(-c2ccccc2)cc1`, the survivor count is 0 of 10 under setting [3] and 0 of 10 (dose: 800.0 mg/kg/injection, schedule: Q01DX011 (ip), vehicle: carboxymethylcellulose (CMC)).
For the compound `Cc1cnc(SCc2ccccc2)nc1N(C)C`, for the setting “dose: 31.0 mg/kg/injection, schedule: Q01DX011 (ip), vehicle: methylcellulose (MC)”, the survivor count was 6 of 10.
For the compound `Nc1ccc(C(=O)O)c(O)c1`, under “dose: 70.53 mg/kg/injection, schedule: Q01DX011 (ip), vehicle: carboxymethylcellulose (CMC)”, the T/C was 126 % of control [9 of 10 alive].
Take `CCC(C)Cn1cnc2c(=O)[nH]c(N)nc21` (stereo unspecified): for the setting “dose: 300.0 mg/kg/injection, schedule: Q01DX011 (ip), vehicle: methylcellulose (MC)”, the survivor count is on record as 4 of 10.
As for `OCCNc1ncnc2c1ncn2C1CCCO1` (stereo unspecified), the T/C (dose: 25.0 mg/kg/injection, schedule: Q01DX011 (ip), vehicle: saline) is 125 % of control.
In the case of `CN(C)c1nc(N)nc(Nc2ccc(Br)cc2)c1N=O`, the T/C reads like this: under setting [1], 133 % of control; under setting [2], 149 % of control; under setting [3], 140 % of control. Further, the survivor count is 6 of 10 under setting [1], 4 of 10 under setting [2] and 6 of 10 under setting [3].
In the case of `CN1CCC(CN2c3ccccc3Sc3ccccc32)CC1`, under “dose: 240.0 mg/kg/injection, schedule: Q01DX011 (ip), vehicle: methylcellulose (MC)”, the survivor count is given as 4 of 10.
For the compound `O=c1[nH]cc(F)c(=O)[nH]1`, for the setting “dose: 3.87 mg/kg/injection, schedule: Q01DX011 (ip), vehicle: carboxymethylcellulose (CMC)”, the T/C was 127 % of control. The survivor count was 3 of 10 (dose: 31.0 mg/kg/injection, schedule: Q01DX011 (ip), vehicle: carboxymethylcellulose (CMC)) and 5 of 10 (dose: 33.1 mg/kg/injection, schedule: Q01DX011 (ip), vehicle: carboxymethylcellulose (CMC)).
Regarding `C[C@]12CC[C@H](O)C[C@H]1CC[C@@H]1[C@@H]2CC[C@]2(C)[C@@H](C3=CC(=O)OC3)CC[C@]12O`, under “dose: 50.0 mg/kg/injection, schedule: Q01DX011 (ip), vehicle: carboxymethylcellulose (CMC)”, the survivor count is recorded as 1 of 10.
